PubChem BioAssay AID1224830, NIAID | 2016
Screen: 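Genes whose knock-down alters the TNF-alpha reporter response to LPS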 (primary screen). Cells: human THP-1 monocytic leukaemia cells, TNF dual-luciferase reporter clone, PMA-differentiated to macrophage-like cells. Reagents: siRNA pool against human genes, 50 nM. Timing: LPS for 4 h, given about 3 days after siRNA transfection. Treatment: bacterial LPS (TLR4 ligand), 10 ng/ml. Read-out: 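Ratio of firefly to renilla light, scaled to the plate median and expressed as a robust z-score per replicate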. Direction: TNF reporter robust z-score: higher = stronger TNF reporter response to LPS. Active means: 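a well is active when its z-score exceeds 2.8 or falls below -1.5; control wells carry no call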.
In all, the deposit lists about 18,000 reagents; this is a part drawn at random. About 2,900 of them (16%) count as active. 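Calls are made per well; low scores hint the gene aids the LPS response, high scores that it dampens it.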 Entries without a mark were called inactive. Repeated entries: four replicate wells of each siRNA pool.

no.	target gene	TNF reporter robust z-score
1	PNKD	2.78
2	PNKD	3.89 (active)
3	PNKD	1.57
4	PNKD	4.21 (active)
5	XG	0.27
6	XG	-1.09
7	XG	-0.75
8	KCNQ1	-0.6
9	KCNQ1	-0.84
10	KCNQ1	-0.77
11	KCNQ1	0.46
12	EIF4E3	-1.5
13	EIF4E3	-0.72
14	EIF4E3	-1.39
15	EIF4E3	-0.09
16	USF3	-0.71
17	USF3	-1.14
18	USF3	-1.17
19	USF3	-0.4
20	RDX	-0.86
21	RDX	-0.92
22	RDX	-0.47
23	RDX	-0.54
24	KIF3A	0.72
25	KIF3A	1.74
26	KIF3A	1.14
27	KIF3A	0.86
28	DNM1	-0.58
29	DNM1	-1.07
30	DNM1	-0.7
31	DNM1	-0.61
32	MUC15	-1.41
33	MUC15	-1.47
34	MUC15	-1.1
35	MUC15	-0.16
36	ZNF514	-1.29
37	ZNF514	-0.93
38	ZNF514	-1.21
39	ZNF514	-0.75

Part of the list above, set out differently.
PNKD
- TNF reporter robust z-score: 4.21 (active)

XG
- TNF reporter robust z-score: 0.27

XG
- TNF reporter robust z-score: -1.09

XG
- TNF reporter robust z-score: -0.75

KCNQ1
- TNF reporter robust z-score: -0.6

KCNQ1
- TNF reporter robust z-score: -0.84

KCNQ1
- TNF reporter robust z-score: -0.77

Next records:
no.	target gene	TNF reporter robust z-score
40	NEMF	1.51
41	NEMF	0.3
42	NEMF	0.83
43	NEMF	-0.33
44	CHUK	-0.41
45	CHUK	-1.08
46	CHUK	-0.28
47	CHUK	-0.49
48	TRHR	-0.5
49	TRHR	-0.07
50	TRHR	-0.44
51	TRHR	1.33
52	TYW3	-0.39
53	TYW3	-0.82
54	TYW3	-1.02
55	TYW3	-0.54
56	SNX27	-1.09
57	SNX27	-1.52 (active)
58	SNX27	-1.43
59	SNX27	-0.21
60	TRIM63	1.85
61	TRIM63	5.13 (active)
62	TRIM63	0.38
63	TRIM63	1.45
64	ANKRD23	-0.66
65	ANKRD23	-0.13
66	ANKRD23	-0.4
67	ANKRD23	-0.23
68	GAPVD1	-1.05
69	GAPVD1	-0.68
70	GAPVD1	-0.47
71	GAPVD1	-0.45
72	ATP5MK	0.73
73	ATP5MK	0.33
74	ATP5MK	-0.04
75	ATP5MK	1.2
